For one molecule, binding results are on record in doi:10.1101/2025.02.20.639226, “In vitro reconstitution of minimal human centrosomes” (bioRxiv, 2025).

Sequences of proteins named here, by UniProt entry; tags and fusion partners are left off. A change or cut given only in a name is not applied to a line headed by its entry. A line that says so, or that is headed by a name, gives the form on record, which may keep a tag or linker.
GFP::CDK5RAP2 isoform B (full-length, wild type) (Q96SN8, form named): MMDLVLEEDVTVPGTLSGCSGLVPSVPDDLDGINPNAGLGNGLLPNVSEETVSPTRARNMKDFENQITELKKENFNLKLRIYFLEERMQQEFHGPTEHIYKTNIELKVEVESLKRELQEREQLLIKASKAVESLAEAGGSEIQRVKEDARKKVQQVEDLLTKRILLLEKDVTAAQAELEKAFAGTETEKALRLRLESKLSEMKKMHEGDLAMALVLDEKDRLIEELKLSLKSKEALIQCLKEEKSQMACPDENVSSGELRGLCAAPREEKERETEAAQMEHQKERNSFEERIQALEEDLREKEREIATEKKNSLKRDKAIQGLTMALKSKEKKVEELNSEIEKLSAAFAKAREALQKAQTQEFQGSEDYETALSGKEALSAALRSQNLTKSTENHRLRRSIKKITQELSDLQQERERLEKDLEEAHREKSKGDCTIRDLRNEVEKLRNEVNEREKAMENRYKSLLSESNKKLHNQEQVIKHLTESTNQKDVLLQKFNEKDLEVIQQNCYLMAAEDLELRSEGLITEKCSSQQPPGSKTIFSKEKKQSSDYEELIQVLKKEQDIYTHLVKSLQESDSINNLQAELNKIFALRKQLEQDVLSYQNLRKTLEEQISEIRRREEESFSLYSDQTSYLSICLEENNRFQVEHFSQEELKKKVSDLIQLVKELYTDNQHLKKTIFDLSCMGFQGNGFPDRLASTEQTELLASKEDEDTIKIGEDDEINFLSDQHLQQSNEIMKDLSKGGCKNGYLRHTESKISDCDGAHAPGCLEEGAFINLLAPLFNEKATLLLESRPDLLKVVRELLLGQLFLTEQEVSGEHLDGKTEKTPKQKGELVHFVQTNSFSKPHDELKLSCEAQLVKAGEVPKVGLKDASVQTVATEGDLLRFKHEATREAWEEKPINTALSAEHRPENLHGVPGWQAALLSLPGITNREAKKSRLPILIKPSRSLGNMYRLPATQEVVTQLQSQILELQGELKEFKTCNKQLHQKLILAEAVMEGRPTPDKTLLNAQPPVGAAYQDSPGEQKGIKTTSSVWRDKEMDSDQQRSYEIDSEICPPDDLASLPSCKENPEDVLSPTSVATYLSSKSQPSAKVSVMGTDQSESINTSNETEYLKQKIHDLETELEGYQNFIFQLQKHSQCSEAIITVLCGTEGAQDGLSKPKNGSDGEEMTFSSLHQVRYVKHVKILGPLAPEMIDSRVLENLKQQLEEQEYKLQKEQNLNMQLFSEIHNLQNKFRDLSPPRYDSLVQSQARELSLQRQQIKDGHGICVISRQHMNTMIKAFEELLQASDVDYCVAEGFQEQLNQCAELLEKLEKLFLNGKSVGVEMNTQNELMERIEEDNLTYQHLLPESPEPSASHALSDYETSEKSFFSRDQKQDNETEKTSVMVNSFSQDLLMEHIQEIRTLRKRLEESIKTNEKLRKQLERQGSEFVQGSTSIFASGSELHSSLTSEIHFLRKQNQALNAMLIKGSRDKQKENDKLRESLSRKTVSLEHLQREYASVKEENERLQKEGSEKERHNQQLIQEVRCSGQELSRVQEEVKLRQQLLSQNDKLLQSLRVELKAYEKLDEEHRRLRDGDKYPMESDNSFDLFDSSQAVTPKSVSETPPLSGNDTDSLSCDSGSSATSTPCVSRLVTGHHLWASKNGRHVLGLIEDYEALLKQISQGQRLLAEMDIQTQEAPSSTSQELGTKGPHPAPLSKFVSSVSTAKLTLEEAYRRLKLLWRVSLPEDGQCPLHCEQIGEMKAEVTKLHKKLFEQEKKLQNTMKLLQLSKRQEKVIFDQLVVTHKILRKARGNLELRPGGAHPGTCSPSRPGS

These are yes or no findings as the source states them, for the method shown.

The assay has as its target GFP::CDK5RAP2 isoform B (full-length, wild type) (human) (UniProt Q96SN8). As to the kind of experiment: partitioning into in vitro scaffolds, confocal fluorescence microscopy; GFP::CDK5RAP2 assemblies (120nM) induced with anti-CM2 IgM; mCherry, full-length or ΔIDR mCherry::HSET at 50nM; 50mM KCl, 25mM HEPES; partition coefficient; both purified.

B1: mCherry::HSET(ΔIDR), missing a.a. 2-138 (domain or fragment, UniProt Q9BW19)
chain: MLKGQLCDLNAELKRCRERTQTLDQENQQLQDQLRDAQQQVKALGTERTTLEGHLAKVQAQAEQGQQELKNLRACVLELEERLSTQEGLVQELQKKQVELQEERRGLMSQLEEKERRLQTSEAALSSSQAEVASLRQETVAQAALLTEREERLHGLEMERRRLHNQLQELKGNIRVFCRVRPVLPGEPTPPPGLLLFPSGPGGPSDPPTRLSLSRSDERRGTLSGAPAPPTRHDFSFDRVFPPGSGQDEVFEEIAMLVQSALDGYPVCIFAYGQTGSGKTFTMEGGPGGDPQLEGLIPRALRHLFSVAQELSGQGWTYSFVASYVEIYNETVRDLLATGTRKGQGGECEIRRAGPGSEELTVTNARYVPVSCEKEVDALLHLARQNRAVARTAQNERSSRSHSVFQLQISGEHSSRGLQCGAPLSLVDLAGSERLDPGLALGPGERERLRETQAINSSLSTLGLVIMALSNKESHVPYRNSKLTYLLQNSLGGSAKMLMFVNISPLEENVSESLNSLRFASKVNQCVIGTAQANRK
For the molecule B1, the binding entry is “no binding (tested: 50nM)”.
